Data: publication PMC4826273
These are yes or no findings as the source states them, for the method shown. Some results given as binding are weak or reduced against the parent protein; the word gives no strength.

Chains of the proteins cited; added tags and fusions are not shown. Residues count along the entry.
UniProt Q9QXX0, residues 34-1218: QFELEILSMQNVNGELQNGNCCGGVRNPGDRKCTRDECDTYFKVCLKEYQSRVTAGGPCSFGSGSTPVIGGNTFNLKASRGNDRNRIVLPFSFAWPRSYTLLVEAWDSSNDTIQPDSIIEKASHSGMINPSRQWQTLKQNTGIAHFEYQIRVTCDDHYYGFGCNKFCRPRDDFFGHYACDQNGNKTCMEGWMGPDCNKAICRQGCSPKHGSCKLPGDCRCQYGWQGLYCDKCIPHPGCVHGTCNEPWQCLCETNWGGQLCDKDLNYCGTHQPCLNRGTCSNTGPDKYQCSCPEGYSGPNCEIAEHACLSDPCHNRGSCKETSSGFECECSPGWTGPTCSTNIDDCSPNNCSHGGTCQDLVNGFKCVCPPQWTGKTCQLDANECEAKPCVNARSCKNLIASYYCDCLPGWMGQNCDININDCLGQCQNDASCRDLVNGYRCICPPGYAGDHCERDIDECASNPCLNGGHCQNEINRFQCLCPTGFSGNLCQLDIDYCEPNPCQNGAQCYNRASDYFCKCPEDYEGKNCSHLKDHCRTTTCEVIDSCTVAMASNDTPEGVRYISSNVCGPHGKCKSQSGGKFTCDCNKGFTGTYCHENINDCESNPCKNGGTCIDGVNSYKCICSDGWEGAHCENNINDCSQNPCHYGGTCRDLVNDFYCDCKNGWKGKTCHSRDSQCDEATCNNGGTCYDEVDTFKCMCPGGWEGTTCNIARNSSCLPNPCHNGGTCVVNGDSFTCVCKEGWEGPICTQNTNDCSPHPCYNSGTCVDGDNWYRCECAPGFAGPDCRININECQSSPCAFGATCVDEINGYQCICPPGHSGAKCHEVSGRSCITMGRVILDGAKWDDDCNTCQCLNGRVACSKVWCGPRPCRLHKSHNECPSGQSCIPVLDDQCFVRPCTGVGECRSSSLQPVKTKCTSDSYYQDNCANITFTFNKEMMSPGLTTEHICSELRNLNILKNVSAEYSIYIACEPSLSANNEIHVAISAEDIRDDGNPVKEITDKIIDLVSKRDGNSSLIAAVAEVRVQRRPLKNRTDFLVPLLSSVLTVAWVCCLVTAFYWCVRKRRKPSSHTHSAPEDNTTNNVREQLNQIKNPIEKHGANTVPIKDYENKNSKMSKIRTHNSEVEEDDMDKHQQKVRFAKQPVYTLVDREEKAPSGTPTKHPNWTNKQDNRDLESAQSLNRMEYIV
UniProt Q9JI71, residues 27-686: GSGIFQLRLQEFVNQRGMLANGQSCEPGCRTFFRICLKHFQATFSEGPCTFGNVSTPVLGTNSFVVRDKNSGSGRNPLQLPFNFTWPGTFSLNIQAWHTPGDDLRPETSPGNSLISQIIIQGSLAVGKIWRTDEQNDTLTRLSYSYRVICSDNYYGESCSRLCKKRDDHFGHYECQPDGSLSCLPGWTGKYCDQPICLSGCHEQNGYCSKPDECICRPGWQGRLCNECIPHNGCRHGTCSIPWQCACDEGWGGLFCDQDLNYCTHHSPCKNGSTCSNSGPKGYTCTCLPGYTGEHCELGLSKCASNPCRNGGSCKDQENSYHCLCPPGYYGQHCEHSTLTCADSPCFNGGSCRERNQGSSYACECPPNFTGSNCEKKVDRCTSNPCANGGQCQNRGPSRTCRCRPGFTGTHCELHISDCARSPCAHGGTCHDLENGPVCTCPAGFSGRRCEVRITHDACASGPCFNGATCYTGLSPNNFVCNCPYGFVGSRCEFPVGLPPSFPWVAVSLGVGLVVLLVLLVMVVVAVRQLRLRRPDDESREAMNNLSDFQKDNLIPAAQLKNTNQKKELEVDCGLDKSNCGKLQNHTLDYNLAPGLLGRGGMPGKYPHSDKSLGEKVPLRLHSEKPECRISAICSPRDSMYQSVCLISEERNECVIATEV
UniProt P46531, residues 411-526: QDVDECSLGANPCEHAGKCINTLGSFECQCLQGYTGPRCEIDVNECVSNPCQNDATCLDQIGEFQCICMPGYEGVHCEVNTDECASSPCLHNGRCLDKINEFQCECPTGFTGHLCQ

Tests used:
[1] = biological target: mJagged1 expressed on B16F10 cells (mouse) (UniProt Q9QXX0); assay: flow cytometry on cells; biotinylated hNotch1 fragments coupled to avidin-coated purple fluorescent beads (Spherotech), added to B16F10 cells expressing mDll-4 or mJagged1; analysed directly without removal of unbound beads; compared with a control protein; only the binder purified
[2] = biological target: mDll-4 expressed on B16F10 cells (mouse (mDll-4 in legend and methods; the results text says human)) (UniProt Q9JI71); assay: as above

binding [1]: binds
binding [2]: binds
Substance: human Notch1 EGF11-13, biotinylated (from UniProt P46531 411-526) (domain or fragment)
